# Among all 330,000 compounds or so, about 7,700 (2.3%) were called active. This list was built around the results that the source calls inconclusive (neither active nor inactive); the mix of calls is not that of the screen. The call rests on the fitted dose curve; in most records, active means well fitted inhibition curve with a large enough effect; inconclusive means small, poorly fitted or top-dose-only effect, or effect the other way; inactive means flat fitted curve, though single readings scatter. A potency beside an inconclusive call is a rough fit, not a confirmed value.
# Assay: qHTS screen for small molecules that inhibit ELG1-dependent DNA repair in human embryonic kidney (HEK293T) cells expressing luciferase-tagged ELG1; further: nearly all actives have a fitted effect of over 55% in size
# Conditions: HEK293T ELG1-luciferase reporter, luminescence, 16 h, DNA damage induced by 5-fluorouridine; series mostly up to 46.1 µM
# How it was run: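 Reporter activity after DNA damage by 5-fluorouridine is monitored. Compound-treated cells incubate 16 hr at 37 °C, then ONE-Glo is added for 30 min before luminescence reading.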
# Potency means the concentration at half of the fitted maximal effect.
row,SMILES,Potency
1,CNc1nc(-c2ccc(OC)cc2)c(-c2ccc(OC)cc2)s1,"inconclusive: 20.6 µM [inhibitor, single point]"
2,Cc1ccc2c(CC(=O)OCC(=O)N(CC(C)C)c3c(N)n(Cc4ccccc4)c(=O)[nH]c3=O)coc2c1,inactive
3,Cc1ccc(S(=O)(=O)N2CCCOC2CNC(=O)C(=O)NCc2ccccc2C)cc1 (stereo not drawn),inactive
4,COc1cccc(C(=O)NC(=S)Nc2ccccc2N2CCCCC2)c1,inactive
5,O=C(CSc1nnc(CCc2nc3ccccc3[nH]2)n1-c1ccccc1)NCc1ccccc1,inactive
6,CCOC(=O)N1CCN(C(=O)c2ccc3c(c2)N(Cc2ccccc2)CCS3)CC1,"inconclusive: 23.1 µM [inhibitor, single point]"
7,CC(C)Oc1ccc(N2CC(C(=O)Nc3ccccc3C(=O)NC3CC3)CC2=O)cc1 (stereo not drawn),"inconclusive: 25.9 µM [inhibitor, single point]"
8,O=C(c1cc(COc2c(F)cccc2F)on1)N1C[C@H]2CC[C@H]1C2,"inconclusive: 16.4 µM [activator, partial curve]"
9,Cn1c(SCC(=O)NCc2cccs2)nnc1-c1ccc(O)cc1,inactive
10,CCOc1c(OC(C)=O)ccc(/C=C/c2ccc3cccc(OC(C)=O)c3n2)c1[N+](=O)[O-],"inconclusive: 5.01 µM [activator, single point]"
11,COc1ccc(OC)c(/C=N/NC(=O)c2ccc(=O)[nH]n2)c1,"inconclusive: 2.06 µM [inhibitor, partial curve, poor fit]"
12,S=C(NCCc1ccccc1)N1CCN(Cc2ccc(Cl)c(Cl)c2)CC1,inactive
13,Clc1ccccc1CN1CCN(/N=C/C=C/c2ccco2)CC1,"inconclusive: 25.9 µM [activator, single point]"
14,COc1ccc(CCN2C(=S)N(c3ccc(Cl)cc3)C(=O)C2CC(N)=O)cc1OC (stereo not drawn),"inconclusive: 23.1 µM [inhibitor, partial curve]"
15,O=c1[nH]c2cc3ccccc3cc2nc1C(F)(F)F,inactive
16,c1cncc(-c2cnc3ccccc3c2)c1,"inconclusive: 18.3 µM [activator, single point]"
17,Cc1ccc(NC(=O)Nc2ccccc2F)cc1S(=O)(=O)N1CCOCC1,active: 20.6 µM
18,COc1ccc(Cc2nc3ccc(C(=O)NCC(C)(C)OC)cc3o2)cc1,"inconclusive: 16.4 µM [activator, partial curve]"
19,CCCCN1CN(Cc2ccccc2)CNC1=S,inactive
20,CCC(=O)Nc1cccc(C(=O)/C=C/c2cc(Br)ccc2OC)c1,"inconclusive: 23.1 µM [inhibitor, single point]"
21,COCC(=O)OCC(=O)c1cc(C)n(-c2ccc(Br)cc2)c1C,inactive
22,CC(C)NC(=O)CSc1ncccc1-c1nc2ccccc2[nH]1,"inconclusive: 16.4 µM [activator, partial curve]"
23,O=C(NCCCCCCNC(=O)C1CCCC1)C1CCCC1,inactive
24,Cc1ccc(CNC(=O)COc2cccc3c2OC(C)(C)C3)cc1,inactive
25,COc1ccc2c(c1)S/C(=C\C(=O)c1ccncc1)N2C,"inconclusive: 29.1 µM [activator, single point]"

row,SMILES,Potency
1,Cc1c(C(=O)Nc2ccccc2F)cnn1-c1ccccc1,"inconclusive: 2.06 µM [activator, full curve]"
2,Cc1nc(Nc2cccc(C(C)O)c2)c2nnn(Cc3ccccc3F)c2n1 (stereo not drawn),"inconclusive: 18.3 µM [inhibitor, single point]"
3,CCC(=O)Nc1nc(C)c(-c2csc(Nc3ccccn3)n2)s1,inactive
4,COc1ccc(-n2c(=S)[nH]c3cc(C(=O)Nc4ccc(OC)c(OC)c4)ccc3c2=O)cc1,"inconclusive: 18.4 µM [activator, partial curve, poor fit]"
5,O=C(O)c1ccc(N/N=C/c2ccc(-c3ccc(Cl)cc3Cl)o2)cc1,"inconclusive: 18.3 µM [activator, partial curve]"
6,COc1ccccc1N(C)S(=O)(=O)c1ccc(C(=O)NC2CCCCCC2)cc1,"inconclusive: 20.6 µM [inhibitor, single point]"
7,O=C(CSc1oc(-c2cccs2)nc1S(=O)(=O)c1ccc(F)cc1)NCC1CCCO1 (stereo not drawn),inactive
8,CCOC(=O)c1c(-c2ccc(-c3ccccc3)cc2)csc1NC(=O)CCC(=O)O,inactive
9,Cc1cccc(C)c1NC(=O)CNC(=O)CN1C(=O)NC2(CCc3ccccc32)C1=O (stereo not drawn),inactive
10,Cn1c(=O)c(C(=O)COc2ccc(F)cc2Cl)c(N)n(Cc2ccccc2)c1=O,active: 23.1 µM
11,COc1ccc(NC(=O)c2oc3ccccc3c2C)cn1,inactive
12,O=C(/C=C/c1ccccc1Cl)N(Cc1ccc(Cl)cc1)C1CCS(=O)(=O)C1 (stereo not drawn),"inconclusive: 29.1 µM [inhibitor, single point]"
13,Cc1ccc(NC(=O)c2ccccc2OCC(=O)Nc2ccccc2F)cc1S(=O)(=O)N(C)C,"inconclusive: 2.31 µM [inhibitor, full curve]"
14,COC(=O)c1c(NC(=O)COC(=O)c2ccccc2O)sc2c1CCCCC2,inactive
15,Cc1nnc(-c2cccc(Br)c2)c2cn(-c3ccc(Br)cc3)nc12,"inconclusive: 8.2 µM [inhibitor, partial curve, poor fit]"
16,O=C(CSc1nnc(-c2ccccc2)o1)N1CCCCC1,"inconclusive: 14.6 µM [activator, partial curve]"
17,O=C(COC(=O)c1cccc2c1C(=O)c1ccccc1C2=O)NC1CCCCC1,"inconclusive: 23.1 µM [inhibitor, single point]"
18,COc1cc(-c2noc(C)c2C#Cc2nccn2C)cc(OC)c1OC,"inconclusive: 29.1 µM [inhibitor, single point]"
19,CN(C)c1nc(OCCNC(=O)Nc2ccccc2)nc(N(C)C)n1,inactive
20,CCOC(=O)C1=C(C)C(c2cccc(Oc3ccccc3)c2)NC(=S)N1 (stereo not drawn),active: 25.9 µM
21,CN(C1=C(NC(=O)c2ccc(Cl)cc2)C(=O)c2ccccc2C1=O)c1ccccc1,"inconclusive: 25.9 µM [inhibitor, single point]"
22,S=c1[nH]nc(-c2ccccc2)n1C1C=CCCC1 (stereo not drawn),inactive
23,CCc1ccnc(NC(=O)Nc2ccc(OCc3ccccc3)cc2)c1,inactive
24,O=[N+]([O-])c1ccccc1S(=O)(=O)Nc1ccc(S(=O)(=O)Nc2nccs2)cc1,inactive
25,CCc1ccc(/C=c2\s/c(=C\C(=O)C(C)(C)C)[nH]c2=O)cc1,"inconclusive: 20.6 µM [inhibitor, single point]"

row,SMILES,Potency
1,Cc1noc(NS(=O)(=O)c2ccc(N/C=C\C(=O)c3cccs3)cc2)c1C,inactive
2,COc1ccc(-c2csc(N3CCOCC3)n2)cc1OC,"inconclusive: 16.4 µM [activator, partial curve]"
3,O=C1CCCCCN1CP(=O)(O)CN1CCCCCC1=O,inactive
4,CN(C)/C=C/C(=O)c1ccc(-n2cccc2)cc1,"inconclusive: 13 µM [activator, partial curve]"
5,CCOC(=O)C1=C(c2ccccc2)O/C(=C(/C#N)C(F)(F)F)S1,"inconclusive: 23.1 µM [inhibitor, single point]"
6,O=C1NCC2=C1C(c1ccccc1)Nc1ccccc1N2 (stereo not drawn),"inconclusive: 23.1 µM [activator, single point]"
7,COc1ccc(CCNC(=O)c2cc3c(=O)n4cccc(C)c4nc3n(Cc3ccco3)c2=N)cc1OC,"inconclusive: 23.1 µM [inhibitor, single point]"
8,COc1cc(NC(=O)c2nccnc2N)cc(C(=O)Nc2cccc(C(F)(F)F)c2)c1,inactive
9,CN(C)c1ccc(C(CNS(=O)(=O)c2ccc3ccccc3c2)c2c[nH]c3ccccc23)cc1 (stereo not drawn),"inconclusive: 11.6 µM [activator, partial curve]"
10,CCC1=NN(C(=O)c2ccc(Br)cc2)C(O)(c2ccccc2)C1 (stereo not drawn),inactive
11,O=S(=O)(Cc1ccc(Cl)cc1)Nc1ccc(Cl)cn1,"inconclusive: 29.1 µM [activator, partial curve, poor fit]"
12,Cc1ccsc1C(=O)NCCc1nnc2ccccn12,"inconclusive: 20.6 µM [activator, partial curve]"
13,Cc1cc(C)nc(N/N=C/C2=C(N3CCOCC3)C(=C/c3ccccc3)/CC2)n1,active: 16.4 µM
14,NS(=O)(=O)c1ccc(CCNC(=O)CSc2nc3ccsc3c(=O)n2CC(=O)O)cc1,"inconclusive: 14.6 µM [activator, partial curve, poor fit]"
15,CCCCC(=O)N/N=C/c1ccc(N2CCOCC2)c([N+](=O)[O-])c1,"inconclusive: 29.1 µM [inhibitor, single point]"
16,COc1cc(Cl)c(CN2CCCC(CO)(Cc3ccccc3)C2)cc1OC (stereo not drawn),inactive
17,Cn1c(N2CCN(C(c3ccccc3)c3ccccc3)CC2)nc2c1c(=O)[nH]c(=O)n2C,"inconclusive: 14.6 µM [inhibitor, partial curve, poor fit]"
18,N#CCSc1ncnc2ccccc12,active: 23.1 µM
19,O=C(Nc1nc2ccccc2n1CCN1CCCCC1)c1ccco1,inactive
20,Cc1ccc(C)c(N2CCN(C(=O)C3CCN(S(=O)(=O)c4cccc5nsnc45)CC3)CC2)c1,"inconclusive: 14.6 µM [inhibitor, partial curve, poor fit]"
21,O=C(N/N=C/c1cc([N+](=O)[O-])ccc1Cl)c1cc(-c2ccccc2)nc2ccccc12,"inconclusive: 23.1 µM [inhibitor, partial curve, poor fit]"
22,COc1ccccc1NC(=O)Nc1ccc(Br)cn1,inactive
23,COc1ccc(/C=C2/N=C(SC3CCOC3=O)N(c3cccc(OC)c3)C2=O)cc1 (stereo not drawn),"inconclusive: 16.4 µM [inhibitor, partial curve, poor fit]"

# A different layout for part of the listing above.
row | SMILES | Potency
18 | N#CCSc1ncnc2ccccc12 | active: 23.1 µM
19 | O=C(Nc1nc2ccccc2n1CCN1CCCCC1)c1ccco1 | inactive
20 | Cc1ccc(C)c(N2CCN(C(=O)C3CCN(S(=O)(=O)c4cccc5nsnc45)CC3)CC2)c1 | inconclusive: 14.6 µM [inhibitor, partial curve, poor fit]
21 | O=C(N/N=C/c1cc([N+](=O)[O-])ccc1Cl)c1cc(-c2ccccc2)nc2ccccc12 | inconclusive: 23.1 µM [inhibitor, partial curve, poor fit]
22 | COc1ccccc1NC(=O)Nc1ccc(Br)cn1 | inactive

# From PubChem BioAssay AID504467 (National Center for Advancing Translational Sciences (NCATS), 2011)
